No constants are given. Whether binding was seen depends on the method and setting. Some binding calls cover weakened binding; strength is not graded here. Tags and fused reporters may be left off the sequences shown.

Chains of the proteins cited; added tags and fusions are not shown.
UniProt O95166: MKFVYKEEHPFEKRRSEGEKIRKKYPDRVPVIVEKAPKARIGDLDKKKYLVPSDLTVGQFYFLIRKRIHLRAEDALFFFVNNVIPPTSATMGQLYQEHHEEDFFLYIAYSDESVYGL

The target of experiment [1] is T1, NBR1 (untagged, recombinant) (UniProt Q14596).
T1 sequence: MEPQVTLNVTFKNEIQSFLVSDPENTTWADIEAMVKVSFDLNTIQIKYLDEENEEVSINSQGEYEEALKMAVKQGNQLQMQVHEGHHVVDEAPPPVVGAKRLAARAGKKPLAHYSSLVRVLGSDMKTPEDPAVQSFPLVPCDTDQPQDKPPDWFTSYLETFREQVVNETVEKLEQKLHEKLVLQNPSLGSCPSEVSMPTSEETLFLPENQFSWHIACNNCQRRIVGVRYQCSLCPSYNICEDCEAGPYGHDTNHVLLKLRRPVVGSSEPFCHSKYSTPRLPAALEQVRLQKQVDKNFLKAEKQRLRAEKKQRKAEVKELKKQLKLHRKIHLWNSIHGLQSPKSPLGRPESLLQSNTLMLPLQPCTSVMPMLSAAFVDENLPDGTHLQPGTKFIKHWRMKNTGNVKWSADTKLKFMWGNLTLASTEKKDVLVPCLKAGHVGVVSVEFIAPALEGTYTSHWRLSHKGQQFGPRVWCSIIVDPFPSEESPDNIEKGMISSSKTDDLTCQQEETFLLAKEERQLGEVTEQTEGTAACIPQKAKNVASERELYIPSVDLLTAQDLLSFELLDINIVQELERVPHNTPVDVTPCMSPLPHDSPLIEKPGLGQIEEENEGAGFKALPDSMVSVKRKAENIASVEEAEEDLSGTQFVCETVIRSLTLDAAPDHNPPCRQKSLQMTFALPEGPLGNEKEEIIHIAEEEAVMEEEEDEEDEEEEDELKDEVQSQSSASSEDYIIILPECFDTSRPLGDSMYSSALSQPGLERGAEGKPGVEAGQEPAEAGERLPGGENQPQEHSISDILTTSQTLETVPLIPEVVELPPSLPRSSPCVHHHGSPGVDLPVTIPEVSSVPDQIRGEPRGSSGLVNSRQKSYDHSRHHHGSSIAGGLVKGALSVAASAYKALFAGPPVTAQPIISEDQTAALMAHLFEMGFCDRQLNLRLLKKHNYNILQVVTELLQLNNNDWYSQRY
As to the kind of experiment: in vitro condensation assay.

The target in experiment [2] is T2, GFP-NBR1 (recombinant, purified) (UniProt Q14596).
T2 sequence: T1 sequence
Nature of the experiment: microscopy-based protein-protein interaction assay.

For GABARAP (from UniProt O95166 1-117), the binding result in experiment [1] and in experiment [2] was “binds” each time.

Values taken from paper doi:10.1101/2024.05.17.594671.
